{"source": "patent US12233088B2", "about": "(Alexion Pharmaceuticals, Inc., priority 2017, dated 2025)", "origin": "cited, not measured here", "conditions": "cited from earlier work", "note": "At least one structure is not confirmed: it was looked up by name or label, or the drawing left a doubt.", "data": [{"smiles": "[NH4+].[NH4+].[SH-].[SH-].[S]=[Mo]=[S]", "note": "[ammonium tetrathiomolybdate]", "values": [{"measurement": "stability", "value": "too unstable for routine use"}]}]}
